Data reported in the DeepSol protein solubility set.

Assay: soluble on expression in E. coli; label from the status in PepcDB or PDB records

Row | Sequence | soluble on expression in E. coli
1 | MGSDKIHHHHHHMPIDITSFDFTACGEEMYRLLAELFPLCRSITGDGVRETLRIIQGQIPLRLVEVPTGTQVFDWTVPREWAIRDAHISDSNGKRIVDFRSNNLHVVGYSVPVDRTISLAELQNHLYSLETMPDAIPYVTSYYQERWGFCLTHRQRSGLPDGEYRVFIDSELKDGHLTYGELIIPGETDREIFLSTYVCHPSMANNELSGPVVATMLARWIMSRPRRFTYRIVFVPETIGSLTYLSRNLDRMKESIVAGFNLTCIGDDRAYSFLPSRSGSTLADRAALNILGHKHPDFIRYSFLDRGSDERQYCSPGVDLPVVSVMRSKYREYPEYHTSLDNLDLVTPAGLQGGFSAVRDCLELLENNRVYRTTCLGEPQLGRRGLFPTVGTRDSHSQVADMLNVLAYADGTNDLIDISNTIQAPVGRLYPIIGKLAAAGLLVEQAADLSSRDVVEAGV | not soluble
2 | MGDAEAGKKIFVQKCAQCHTVEKGGKHKTGPNLWGLFGRKTGQAPGFSYTDANKNKGVIWSEETLMEYLENPKKYIPGTKMIFAGIKKKSEREDLIKYLKQATSS | soluble
3 | MCGGAVISDYIAPEKIARSSGKSSWRSNGVFDCSIYDFDGNFDELESDEPFVFSSTHKHHASGSASDGKKKQSSRYKGIRRRPWGRWAAEIRDPIKGVRVWLGTFNTAEEAARAYDLEAKRIRGAKAKLNFPNESSGKRKAKAKTVQQVEENHEADLDVAVVSSAPSSSCLDFLWEENNPDTLLIDTQWLEDIIMGDANKKHEPNDSEEANNVDASLLSEELLAFENQTEYFSQMPFTEGNCDSSTSLSSLFDGGNDMGLWS | not soluble
4 | PGKTGLGNMHAQRQFVVAAVRAEVRRHEVAKQALNRLRKLAERVDDPELQDSIQASLDSIREAVINSQEWTLSRSIPELRLGVLGDARSGKSSLIHRFLTGSYQVLEKTESEQYKKEMLVDGQTHLVLIREEAGAPDAKFSGWADAVIFVFSLEDENSFQAVSRLHGQLSSLRGEGRGGLALALVGTQDRISASSPRVVGDARARALCADMKRCSYYETCATYGLNVDRVFQEVAQKVVTLRKQQQLLAACKSLPSSPSHSAASTPVAGQASNGGHTSDYSSSLPSSPNVGHRELRAEAAAVAGLSTPGSLHRAAKRRTSLFANRRGSDSEKRSLDSRGETTGSGRAIPIKQSFLLKRSGNSLNKEWKKKYVTLSSNGFLLYHPSINDYIHSTHGKEMDLLRTTVKVPGKRPPRAISAFGPSASINGLVKDMSTVQMGEGLEATTPMPSPSPSPSSLQPPPDQTSKHLLKPDRNLARALSTDCTPSGDLSPLSREPPPSPMVKKQRRKKLTTPSKTEGSAGQAEEENFEFLIVSSTGQTWHFEAASFEERDAWVQAIESQILASLQCCESSKVKLRTDSQSEAVAIQAIRNAKGNSICVDCGAPNPTWASLNLGALICIECSGIHRNLGTHLSRVRSLDLDDWPRELTLVLTAIGNDTANRVWESDTRGRAKPSRDSSREERESWIRAKYEQLLFLAPLSTSEEPLGRQLWAAVQAQDVATVLLLLAHARHGPLDTSVEDPQLRSPLHLAAELAHVVITQLLLWYGADVAARDAQGRTALFYARQAGSQLCADILLQHGCPGEGGSAATTPSAATTPSITATPSPRRRSSAASVGRADAPVALV | soluble
5 | MTHAMLKGSNVPLQATTVRAVLRWTPGQGVPDVDASALLLGPDDRVRSDEDFVFYNQPRHPSGQVWRLGKKRVAEGLTDTIQTDLSGVEPSVGRILLVASADGVTFDRVRSLRILLHDAAADAEPLAYFDVTPETGQETALICGELYRRGEGWKFRALGEGYSNGLRGLATDFGISVDESEGANDPMSAPRPDAASTSPAAASAASSSAPSQATPDQPTPARSIPAPPVVGPDHPTAVQPLPGPSRPLPPEQPTGVPAQPAYGYPQQPATAQPAYGYPQPDAGRPGYGYPQAPAAAGATGAQSGYGYPQPVTGAPDPDFRLPPQGPQFVGR | not soluble
6 | GPLGSMDTETEFDRILLFEQIRQDAENTYKSNPLDADNLTRWGGVLLELSQFHSISDAKQMIQEAITKFEEALLIDPKKDEAVWCIGNAYTSFAFLTPDETEAKHNFDLATQFFQQAVDEQPDNTHYLKSLEMTAKAPQLHAEAYKQGLGGSHHHHHH | soluble
7 | MGHHHHHHSHMNRHFSKEDIYAANRHMKKCSSSLAIREMQIKTTMRYHLTPVRMVIIRKSGNDRCWRGCGEIGTLLHCWWDCKLVQPLWKTVWRFLRDLQLEIPFDPAIPLLGIYPKDYKSCCYKDTCTRMFIAALFTIAKTWNQPKYPTTIG | not soluble
8 | VEVDCSRFPNTTNEEGKDVLVCTEDLRPICGTDGVTHSECLLCAYNIEYGTNISKEHDGECREAVPMDCSRYPNTTSEEGKVMILCNKALNPVCGTDGVTYDNECVLCAHNLEQGTSVGKKHDGECRKELAAVSVDCSEYPKPACTLEYRPLCGSDNKTYGNKCNFCNAVVESNGTLTLSHFGKC | soluble
9 | MGSDKIHHHHHHMRRVVFNQKGGVGKSTIVCNLAAISASEGLRTLVVDLDAQGNSTQYLMGAQAAEATPTAAHFFESSLTYSFKPVDLSEFIHTTPFENLDVMPAHPDLDSLHSKLESRYKIYKLRDALIELESVYDAIYIDTPPALNFYTRSALIAVERCLIPFDCDDFSRRALYTLLDNVKEIQQDHNEALQVEGIVINQFQPRASLPVKLVEELVSEGLPVLASRLSSSVKIRESHQHATPMIHLDPRHKLSQEYLALHTELAG | not soluble
10 | MSEHSEDTEDIKPTISTAPDDCMESDPIKEINFLLASSKNMKIEETPVFNIRLIAEVKARPFLYDQSDEGYNLLSWRNSAWNEIAENLETTSEHVKTRWKTLRDRYKKEEKKERVSKKASSWVFQRPLKFIQAHLKDRQ | not soluble
11 | MTLTQEQRLVLDAVRRVAREVLYPLAPEYDRKAEYPWPQLKALAELGLLGMTTPEEWGGVGLDSVTWALALEELAAADPSVAVIVSVTSGLPQYMLLRFGSEAQKRRYLVPLARGEWIGAFCLTEPQAGSDAKSLRAEARRVKGGFVLNGVKSWITSAGHAHLYVVMARTEKGISAFLVEKGTPGLSFGRPEEKMGLHAAHTAEVRLEEVFVPEENLLGEEGRGLAYALAGLDSGRVGVAAQAVGIARGAFEIAKAYAEEREQFGKKLKEHQAIAFKIADMHVKIAAARALVLEAARKKDRGERFTLEASAAKLFASAAAVEVTREAVQVLGGYGYHRDYRVERYYRDAKVTEIYEGTSEIQRLVIARELYR | soluble
12 | AIATESRISFEDVAVDFSWDQWQLLSPTQKSLYRDVMLENCSSLVFLGNQTTVWLLGFEHLRKSYTG | soluble
13 | MTISKNNKMMAHLNYRMKIILQDGRTFIGFFKAFDKHMNILLAECEEHRQIKPKAGKKTDGEEKRILGLVLVRGEHIVSMTVDGPPPRDDDSVRLAKAGGAGGVGQAKPGGRGMPAMPGMPGMPPGGAPGGLSGAMRGHGGPGMAAMQPGYGGPPGGRPF | not soluble
14 | ASARAPPGLARGCLGRRGPQVQQLDMENQRSSPLSFPSVPQEETLRQAPAGLPRETLFQSRVLPPKEIPSLSPTIPRQGSLPQTSSAPKQETSGRMPHVLQKGPSLLCSAASEQETSLQGPLASQEGTQYPPPAAAEQEVSLLSHSPHHQEAPVHSPEAPEKDPLTLSPTVPETDMDPLLQSPVSQKDTPFQISSAVQKEQPLPTAEITRLAVWAAVQAVERKLEAQAMRLLTLEGRTGTNEKKIADCEKTAVEFANHLESKWVVLGTLLQEYGLLQRRLENMENLLKNRNFWILRLPPGSNGEVPKVPVTFDDVAVHFSEQEWGNLSEWQKELYKNVMRGNYESLVSMDYAISKPDLMSQMERGERPTMQEQEDSEEGETPTDPSAAHDGIVIKIEVQTNDEGSESLETPEPLMGQVEEHGFQDSELGDPCGEQPDLDMQEPENTLEESTEGSSEFSELKQMLVQQRNCTGECWAGTAGEGLP | soluble
